Results from paper PMC4098787.
Like-named read-outs stand apart in the source and are kept apart here. These are yes or no findings as the source states them, for the method shown. Binding seen in cells or lysates may run through a third protein. Some entries that bind do so weakly or less than the wild type. For some of these results: Tags and fused reporters may be left off the sequences shown.

The chains behind the UniProt entries cited, without tags or fusion partners. Where a name states a change or a piece, a line headed by the entry shows the natural chain unless it says otherwise.
UniProt Q9Y3Z3: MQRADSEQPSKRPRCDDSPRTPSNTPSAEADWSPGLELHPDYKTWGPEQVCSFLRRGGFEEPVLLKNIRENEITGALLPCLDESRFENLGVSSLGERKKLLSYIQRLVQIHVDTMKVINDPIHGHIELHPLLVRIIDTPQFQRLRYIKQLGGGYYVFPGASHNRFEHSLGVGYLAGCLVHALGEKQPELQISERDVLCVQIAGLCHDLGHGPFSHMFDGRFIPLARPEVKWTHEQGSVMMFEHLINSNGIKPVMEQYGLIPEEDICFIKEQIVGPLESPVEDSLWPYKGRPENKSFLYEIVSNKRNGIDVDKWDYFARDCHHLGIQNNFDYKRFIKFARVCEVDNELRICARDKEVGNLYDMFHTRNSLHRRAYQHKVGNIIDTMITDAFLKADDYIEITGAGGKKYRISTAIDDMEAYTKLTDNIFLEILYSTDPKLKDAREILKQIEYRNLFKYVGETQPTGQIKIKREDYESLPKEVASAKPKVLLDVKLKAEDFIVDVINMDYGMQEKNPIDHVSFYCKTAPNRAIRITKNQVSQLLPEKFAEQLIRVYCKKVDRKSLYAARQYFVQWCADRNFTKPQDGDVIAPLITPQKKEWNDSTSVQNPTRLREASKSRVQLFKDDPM
UniProt P52294: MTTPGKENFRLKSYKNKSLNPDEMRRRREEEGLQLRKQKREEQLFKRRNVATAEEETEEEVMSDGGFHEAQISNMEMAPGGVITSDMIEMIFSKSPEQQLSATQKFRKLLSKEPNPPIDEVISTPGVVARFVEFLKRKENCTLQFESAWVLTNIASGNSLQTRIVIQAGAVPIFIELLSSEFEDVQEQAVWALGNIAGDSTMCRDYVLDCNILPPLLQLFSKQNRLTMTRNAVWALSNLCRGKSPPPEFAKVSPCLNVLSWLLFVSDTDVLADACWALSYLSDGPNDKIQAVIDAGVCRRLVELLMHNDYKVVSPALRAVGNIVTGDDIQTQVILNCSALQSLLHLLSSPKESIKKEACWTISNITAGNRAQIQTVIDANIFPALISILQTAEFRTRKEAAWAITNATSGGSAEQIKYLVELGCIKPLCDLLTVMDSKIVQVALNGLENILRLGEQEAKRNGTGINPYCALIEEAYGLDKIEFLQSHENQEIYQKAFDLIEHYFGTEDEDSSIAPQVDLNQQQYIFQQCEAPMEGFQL

B1: Flag-tagged Vpx protein of HIV-2ROD (protein, UniProt P06939 1-112)
chain: MTDPRETVPPGNSGEETIGEAFAWLNRTVEAINREAVNHLPRELIFQVWQRSWRYWHDEQGMSESYTKYRYLCIIQKAVYMHVRKGCTCLGRGHGPGGWRPGPPPPPPPGLV

Experiments:
Experiment in all cases: pull-down; GST pull-down from lysates of co-transfected 293 T cells, 48 h after transfection; glutathione-sepharose beads 3 h at 4°C; lysis buffer 50 mM Tris-HCl pH 7.4, 150 mM NaCl, 5 mM EDTA, 5% glycerol, 1% Triton X-100; western blot with anti-HA or anti-Flag
[1] = target: GST-tagged SAMHD1 K11A mutant (human) (UniProt Q9Y3Z3)
[2] = target: GST-tagged wild type SAMHD1 (sterile alpha motif domain and HD domain 1) (human) (UniProt Q9Y3Z3)
[3] = target: GST-tagged SAMHD1 K11A mutant (human) (UniProt Q9Y3Z3); remark: listed apart in the source
[4] = target: GST-tagged wild type SAMHD1 (sterile alpha motif domain and HD domain 1) (human) (UniProt Q9Y3Z3); remark: listed apart in the source

Molecule | binding [1] | binding [2] | binding [3] | binding [4]
HA-tagged karyopherin α1 (KPNA1) (from UniProt P52294 1-538) | binds | binds | – | –
B1 | – | – | binds | binds
